2 molecules from PMC10682000 can be followed below.

By UniProt entry, the sequences of proteins in these tests, tags left out.
UniProt P25490: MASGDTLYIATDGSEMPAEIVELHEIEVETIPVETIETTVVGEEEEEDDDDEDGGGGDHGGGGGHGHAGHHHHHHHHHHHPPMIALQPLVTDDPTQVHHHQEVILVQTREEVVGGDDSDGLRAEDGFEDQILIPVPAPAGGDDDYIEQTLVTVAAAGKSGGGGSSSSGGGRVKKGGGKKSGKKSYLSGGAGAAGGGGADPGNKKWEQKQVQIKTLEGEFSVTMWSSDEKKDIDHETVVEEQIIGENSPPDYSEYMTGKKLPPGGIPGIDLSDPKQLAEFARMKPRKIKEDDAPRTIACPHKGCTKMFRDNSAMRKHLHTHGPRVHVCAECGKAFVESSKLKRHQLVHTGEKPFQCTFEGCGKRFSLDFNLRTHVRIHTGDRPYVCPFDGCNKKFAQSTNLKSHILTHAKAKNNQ

Results are given in words; binding and its absence hold for the method and conditions named. In cells and extracts the contact can be indirect. Some entries that bind do so weakly or less than the wild type.

The target in one experiment is T1, ΔNp63α (human) (UniProt Q9H3D4).
T1 sequence: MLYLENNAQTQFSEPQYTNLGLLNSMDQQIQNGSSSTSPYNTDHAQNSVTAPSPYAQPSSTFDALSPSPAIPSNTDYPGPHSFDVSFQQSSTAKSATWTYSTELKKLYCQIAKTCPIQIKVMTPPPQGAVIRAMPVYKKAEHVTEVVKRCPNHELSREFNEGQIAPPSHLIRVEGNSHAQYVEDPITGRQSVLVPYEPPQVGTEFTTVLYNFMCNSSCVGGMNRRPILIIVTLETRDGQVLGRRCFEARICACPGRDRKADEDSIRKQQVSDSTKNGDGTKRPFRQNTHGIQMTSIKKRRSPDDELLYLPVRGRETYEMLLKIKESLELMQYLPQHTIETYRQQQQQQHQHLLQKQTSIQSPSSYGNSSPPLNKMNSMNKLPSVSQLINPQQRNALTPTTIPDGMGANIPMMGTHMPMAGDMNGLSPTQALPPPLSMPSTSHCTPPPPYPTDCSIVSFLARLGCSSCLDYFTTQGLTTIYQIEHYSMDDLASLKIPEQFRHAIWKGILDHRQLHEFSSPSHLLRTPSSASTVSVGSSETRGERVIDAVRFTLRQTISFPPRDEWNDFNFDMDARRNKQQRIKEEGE
Nature of the experiment: co-IP; whole cell lysates (RIPA lysis buffer with protease inhibitors) of RBE_vector vs. RBE_over cells; incubated with anti-ΔNp63, anti-YY1 or IgG overnight at 4 °C, protein A/G magnetic beads 1 h at room temperature, washed six times with RIPA buffer; western blot. On the technique in general: Immunoblotting shows a protein as a band on a membrane.

For experiment [1], the target named is YY1 (human (endogenous in RBE)) (UniProt P25490). The experiment is described as above.

As to YY1 (from UniProt P25490 1-414), the binding entry with ΔNp63α (human) is recorded as “binds”.

B1: ΔNp63α (protein, UniProt Q9H3D4-2 1-586)
chain: T1 sequence
With B1, the binding entry in experiment [1] is given as “binds”.
